Data: PMC10874388, “Cyclic peptides discriminate BCL-2 and its clinical mutants from BCL-XL by engaging a single-residue discrepancy” (Nature Communications, 2024)
For part of its entries the source gives two or more results. This list holds those alone. An entry can have further records. Results that share an entry differ, and nothing given here explains why; some may be repeats, others may stem from another dose, organism or construct than stated.

Columns and labels:
RS4:11 cells = test: Cell viability assay (CellTiter-Glo), RS4:11; details: 5000 nM, single wells
A549 cells (control) = test: Cell viability assay (CellTiter-Glo), normal A549 (control); details: 12.5 uM, single wells

O=C(c1cc(-c2cc3c(cc2C(=O)N2Cc4ccccc4C[C@H]2CN2CCOCC2)OCO3)n2c1CCCC2)N(c1ccccc1)c1ccc(O)cc1 [S55746]
raw luminescence reading (RS4:11 cells): 238.0, 413.0, 519.0, 340.3, 484.4, 425.0 | control inhibiton rate (A549 cells (control)): 25, 14, 24, 17, 22%
